The values below come from article PMC3747146 (PLoS ONE, 2013).

Protein sequences, listed by entry. Tags and fused reporters are not part of them. Lines headed by an entry give the natural chain unless they say otherwise; changes in a name come on top. Chains listed by the source or under a name are the forms on record and can include a tag or linker.
UniProt Q9UDY8: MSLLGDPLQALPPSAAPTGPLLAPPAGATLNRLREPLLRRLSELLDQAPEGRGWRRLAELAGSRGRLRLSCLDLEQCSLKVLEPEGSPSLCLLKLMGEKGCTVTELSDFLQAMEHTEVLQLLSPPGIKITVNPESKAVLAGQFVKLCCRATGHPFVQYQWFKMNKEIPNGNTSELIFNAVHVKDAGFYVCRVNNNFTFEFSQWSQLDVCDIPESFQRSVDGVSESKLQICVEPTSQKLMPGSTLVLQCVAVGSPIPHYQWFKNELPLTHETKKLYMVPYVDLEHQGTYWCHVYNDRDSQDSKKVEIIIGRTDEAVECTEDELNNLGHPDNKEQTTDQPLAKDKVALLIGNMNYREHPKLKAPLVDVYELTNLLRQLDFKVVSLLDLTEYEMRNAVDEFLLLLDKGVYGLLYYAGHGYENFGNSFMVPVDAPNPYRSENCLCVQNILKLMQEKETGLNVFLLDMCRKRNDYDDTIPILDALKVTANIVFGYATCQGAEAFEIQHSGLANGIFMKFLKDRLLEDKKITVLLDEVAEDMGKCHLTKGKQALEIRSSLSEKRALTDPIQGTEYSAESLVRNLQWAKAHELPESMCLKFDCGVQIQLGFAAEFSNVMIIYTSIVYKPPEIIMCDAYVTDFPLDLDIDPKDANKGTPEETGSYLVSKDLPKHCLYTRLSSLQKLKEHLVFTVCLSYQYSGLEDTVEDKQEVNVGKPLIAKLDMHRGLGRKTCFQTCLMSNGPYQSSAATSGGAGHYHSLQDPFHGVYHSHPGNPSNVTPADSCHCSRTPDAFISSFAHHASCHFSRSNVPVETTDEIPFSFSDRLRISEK
MALT1(Casp-like) C464A, isolated protease domain (Q9UDY8, form named): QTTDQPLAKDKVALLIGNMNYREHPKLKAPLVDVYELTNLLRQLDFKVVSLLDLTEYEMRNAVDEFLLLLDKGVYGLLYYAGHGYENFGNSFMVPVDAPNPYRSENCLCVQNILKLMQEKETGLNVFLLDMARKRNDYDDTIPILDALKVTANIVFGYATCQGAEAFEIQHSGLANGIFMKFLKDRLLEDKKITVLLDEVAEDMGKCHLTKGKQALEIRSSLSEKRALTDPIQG

These are yes or no findings as the source states them, for the method shown. For part of these data: In cells and extracts the contact can be indirect. Some entries that bind do so weakly or less than the wild type. For part of these data: Sequences can lack the tags named with a protein.

Test [1] addresses MALT1(Casp-like) C464A, isolated protease domain (UniProt Q9UDY8). The experiment in a line: SEC; data not shown; construct containing only the protease domain, size exclusion chromatography under physiological salt; both purified. A general note: In gel filtration, larger molecules generally elute earlier.
The target of another test is Strep-tagged MALT1 E549A (UniProt Q9UDY8). The experiment in a line: pull-down; Flag-BCL10 and Strep-MALT1 co-expressed in HEK293T cells; StrepTactin sepharose precipitates from lysates (50 mM HEPES pH 7.5, 150 mM NaCl, 1% Triton-X-100), 30 min at 4°C, immunoblot.
Test [2] has as its target Strep-tagged MALT1 wildtype (UniProt Q9UDY8). The test is described as above.

“MALT1(Casp-like) C464A, isolated protease domain (from UniProt Q9UDY8 333-566) (domain or fragment)”: in test [1], the binding entry is reported as “binds”.

B1: Flag-tagged BCL10 (protein, UniProt O95999 1-233)
chain: MEPTAPSLTEEDLTEVKKDALENLRVYLCEKIIAERHFDHLRAKKILSREDTEEISCRTSSRKRAGKLLDYLQENPKGLDTLVESIRREKTQNFLIQKITDEVLKLRNIKLEHLKGLKCSSCEPFPDGATNNLSRSNSDESNFSEKLRASTVMYHPEGESSTTPFFSTNSSLNLPVLEVGRTENTIFSSTTLPRPGDPGAPPLPPDLQLEEEGTCANSSEMFLPLRSRTVSRQ
Regarding B1, the binding entry (with Strep-tagged MALT1 E549A; in test [2]) was “binds” in each case.
